In data set [1] the test system is gene expression control region of the human CYP3A4 gene (EGFP reporter). The method, then: Forty-eight hours later (corresponding to Day 14 of differentiation culture), the total area fluorescence intensities of EGFP and DsRed were analyzed under a fluorescence microscope (FIG. 16).

`COC(=O)C1=C(C)NC(C)=C(C(=O)OC)C1c1ccccc1[N+](=O)[O-]` [nifedipine]: in data set [1], the “expression of EGFP (total area fluorescence intensity)” value was “induced”. For the same compound, the “cellular damage to HepaRG cells” value with HepaRG cells is “high cellular damage”.

These data come from patent US20150284812A1 (priority 2012, published 2015).
